Experimental data taken from PubChem BioAssay AID1671190 (National Center for Advancing Translational Sciences (NCATS), 2021).
“And” between values parts separate entries of the source, which are not always exact repeats. Equal entries are not always repeated. The whole screen tested about 580,000 compounds, of which about 6,100 (1.1%) were called active. This list was built around the results that the source calls inconclusive (neither active nor inactive); the mix of calls is not that of the screen. The call rests on the fitted dose curve; in most records, active means well fitted inhibition curve with a large enough effect; inconclusive means small, poorly fitted or top-dose-only effect, or another doubt; inactive means no such curve, though single readings can be large or run the other way. A potency beside an inconclusive call is a rough fit, not a confirmed value.

The chains behind the UniProt entries cited, without tags or fusion partners.
UniProt P18054, whole entry, looked up: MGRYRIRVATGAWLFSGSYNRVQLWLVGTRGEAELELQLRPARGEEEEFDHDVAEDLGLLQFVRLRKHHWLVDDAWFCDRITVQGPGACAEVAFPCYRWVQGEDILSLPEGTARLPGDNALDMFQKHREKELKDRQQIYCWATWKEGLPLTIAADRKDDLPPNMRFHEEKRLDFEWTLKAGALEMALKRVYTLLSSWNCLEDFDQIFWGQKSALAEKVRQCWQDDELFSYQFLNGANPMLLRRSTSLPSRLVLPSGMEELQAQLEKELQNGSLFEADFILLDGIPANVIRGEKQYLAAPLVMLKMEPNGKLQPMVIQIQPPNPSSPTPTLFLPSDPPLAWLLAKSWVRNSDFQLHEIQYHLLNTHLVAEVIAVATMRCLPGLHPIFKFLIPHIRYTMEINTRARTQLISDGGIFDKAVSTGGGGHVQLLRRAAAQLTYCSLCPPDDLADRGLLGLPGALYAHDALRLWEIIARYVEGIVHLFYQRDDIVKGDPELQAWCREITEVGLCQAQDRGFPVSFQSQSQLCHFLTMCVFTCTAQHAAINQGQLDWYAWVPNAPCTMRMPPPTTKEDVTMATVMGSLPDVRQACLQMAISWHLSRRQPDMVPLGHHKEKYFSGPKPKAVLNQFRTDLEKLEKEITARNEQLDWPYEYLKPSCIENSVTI

biological target: Polyunsaturated fatty acid lipoxygenase ALOX12 (Homo sapiens) (UniProt P18054); test: Primary qHTS assay for inhibitors of human arachidonate 12S-lipoxygenase (ALOX12): Round 2; settings: purified 12hLO, xylenol orange hydroperoxide absorbance; activity change, negative = inhibition: at 108 µM (top of the series) unless noted
Outline: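 Hydroperoxide product was detected by ferrous iron/xylenol orange as the 573 to 405 nm absorbance ratio. Arachidonic acid at 40 uM (final) was turned over for 30 min at room temperature by 150 nM human 12hLO, pH 7.0 Hepes buffer, after 15 min compound preincubation.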
On the % scale 0 is the no-effect control and ±100 the full control effect; potency means the concentration at half of the fitted maximal effect.

SMILES | Potency | activity change, negative = inhibition
COc1ccc(-c2cn3c(n2)CO[C@@H](CNCc2ccc(OC(F)(F)F)cc2)C3)cc1 | inactive | 
Cc1ccccc1CN1CCN(C(=O)[C@H]2O[C@@H](n3ccc(=O)[nH]c3=O)[C@H](O)[C@@H]2O)CC1 | inconclusive: 39.8 µM [inhibitor, partial curve, poor fit] | 
CCCOc1ccc(-c2c(=O)n(O)c3ccccc3[n+]2[O-])cc1 | inconclusive: 31.6 µM [inhibitor, partial curve] | 
CC(C)c1nncn1C1CCN(S(=O)(=O)c2ccccc2Cl)CC1 | inconclusive: 25.1 µM [inhibitor, full curve] | 
O=C(COc1cccc(Cl)c1)Nc1ccccc1N1CCCCC1 | inactive | 
O=C(CSc1oc(-c2ccco2)nc1S(=O)(=O)c1ccccc1)NCC1CCCO1 (centres undefined) | inconclusive: 39.8 µM [inhibitor, partial curve, poor fit] | 
CC(C)Cn1nc(C(=O)N2CCCCC2c2nc3ccccc3s2)c2ccccc2c1=O (centres undefined) | inconclusive: 79.4 µM [inhibitor, single point] | 
CN(C)C(=O)c1ccc(NC(=O)c2cc(-c3ccco3)nc3ccccc23)cc1 | active: 15.8 µM and inconclusive: 44.7 µM [inhibitor, partial curve] | 
CCOC(=O)N1CCN(Cc2cc(Cl)c3cccnc3c2O)CC1 | inconclusive: 44.7 µM [inhibitor, partial curve, poor fit] | 
CC1=CC(C)(C)N2C(=O)C3(SCC(=O)N3c3ccc(F)cc3)c3cc(C)cc1c32 (centres undefined) | inactive | 
CCOC(=O)Nc1ccc2c(CN(C)C3CCCCC3)cc(=O)oc2c1 | inconclusive: 0.501 µM [inhibitor, full curve, poor fit] | 
CC(NS(=O)(=O)c1ccc(Br)cc1F)[C@H](O)c1ccccc1 (some centres undefined) | inconclusive: 141 µM [inhibitor, single point] | 
COc1ccccc1C1=NS(=O)(=O)N(C)C(C(=O)N2CCN(Cc3ccccc3)CC2)=C1 | inconclusive: 50.1 µM [inhibitor, partial curve, poor fit] | 
CCc1cccc(NC(=S)N(CCC(C)C)C(C)c2cccs2)c1 (centres undefined) | active: 39.8 µM | 
CC(=O)c1c(O)cc(=O)n(-c2ccccc2)c1-c1ccc(Cl)cc1 | inconclusive: 44.7 µM [inhibitor, partial curve, poor fit] | 
CC(NC(=O)CCc1ncc(-c2ccccc2Cl)o1)c1ccc(S(N)(=O)=O)cc1 (centres undefined) | inactive | 
Cc1noc(NS(=O)(=O)c2ccc(NC(=O)/C=C/c3ccc(C(C)C)cc3)cc2)c1C | inconclusive: 89.1 µM [inhibitor, partial curve, poor fit] | 
Cc1csc(C(=O)O)c1NC(=O)c1c(Cl)cccc1Cl | inconclusive: 50.1 µM [inhibitor, partial curve, poor fit] | 
O=C(Nc1ccc2cn[nH]c2c1)c1c(Cl)cccc1Cl | inconclusive: 8.91 µM [inhibitor, full curve, poor fit] | 
COc1ccc(-c2csc(Nc3ccccc3)n2)cc1 | inconclusive: 44.7 µM [inhibitor, partial curve, poor fit] | 
COc1ccccc1/C=C/C=N/n1c(C2CCCCC2)n[nH]c1=S | inconclusive: 11.2 µM [inhibitor, full curve, poor fit] | 
Cc1sc2ncnc(N3CCC(C)CC3)c2c1C | inconclusive: 28.2 µM [inhibitor, single point] | 

Sorted by molar mass (low to high): some entries from above
SMILES | Potency | activity change, negative = inhibition
COc1ccccc1/C=C/C=N/n1c(C2CCCCC2)n[nH]c1=S | inconclusive: 11.2 µM [inhibitor, full curve, poor fit] | 
CCOC(=O)N1CCN(Cc2cc(Cl)c3cccnc3c2O)CC1 | inconclusive: 44.7 µM [inhibitor, partial curve, poor fit] | 
CN(C)C(=O)c1ccc(NC(=O)c2cc(-c3ccco3)nc3ccccc23)cc1 | active: 15.8 µM and inconclusive: 44.7 µM [inhibitor, partial curve] | 
CC(NC(=O)CCc1ncc(-c2ccccc2Cl)o1)c1ccc(S(N)(=O)=O)cc1 (centres undefined) | inactive | 

(cont.)

SMILES | Potency | activity change, negative = inhibition
COc1ccccc1N=Nc1[nH]c2ccc(C)cc2c1O | inconclusive: 44.7 µM [inhibitor, partial curve, poor fit] | 
CCOc1cc(CN2CCCCCC2)ccc1OC | inconclusive: 4.47 µM [inhibitor, full curve, poor fit] | 
CN1CCCn2nc(C(=O)NC34CC5CC(CC(C5)C3)C4)cc2C1 | inactive | 
COc1ccc(S(=O)(=O)N2CCc3ccccc32)cc1C(=O)NCCc1ccc(S(N)(=O)=O)cc1 | inactive | 
Cc1nc2cc(Cl)ccc2n1-c1ccccc1 | inactive | 
O=S(=O)(c1ccccc1)c1nc(-c2ccccc2)oc1NCCCN1CCOCC1 | inconclusive: 44.7 µM [inhibitor, single point] | 
Oc1c(C(Nc2ccccn2)c2ccccn2)ccc2cccnc12 (centres undefined) | inconclusive: 14.1 µM [inhibitor, partial curve, poor fit] | 
O=C1CCCCC1Sc1ccc(Cl)cc1[N+](=O)[O-] (centres undefined) |  | inconclusive: -49.9% [inhibitor]
Cc1nn(C)c(C)c1CN(Cc1ccnc2ccccc12)C1CC1 | inconclusive: 15.8 µM [inhibitor, full curve, poor fit] | 
N#C/C(=N\Nc1ccccc1F)C(=N)N1CCCCC1 | inconclusive: 1.26 µM [inhibitor, full curve, poor fit] | 
COc1ccc(CC2(CO)CCN(Cc3ccc(OC(F)(F)F)cc3)CC2)cc1 | inconclusive: 112 µM [inhibitor, single point] | 
CCC(CO)NC(=O)c1nc(-c2ccc3[nH]ccc3c2)no1 (centres undefined) | inactive | 
O=C(C=Cc1ccc2c(c1)OCO2)C=Cc1ccc2c(c1)OCO2 | inconclusive: 50.1 µM [inhibitor, partial curve, poor fit] | 
Cc1c(O)ccc(C(=O)CN2CCN(c3ccc(F)cc3)CC2)c1O | inconclusive: 35.5 µM [inhibitor, partial curve, poor fit] | 
Cn1cccc1C1CCCN1Cc1nc(-c2ccc(Cl)cc2)no1 (centres undefined) | inconclusive: 63.1 µM [inhibitor, partial curve, poor fit] | 
Clc1ccc(-c2n[nH]c3c2CCC3)c(Cl)c1 | inconclusive: 50.1 µM [inhibitor, partial curve, poor fit] | 
COc1ccc(NC(=O)CN(C)C(=O)c2c(-c3c(F)cccc3Cl)noc2C)cc1 | inconclusive: 63.1 µM [inhibitor, partial curve, poor fit] | 
CCNc1nc(NC(C)C)nc(SCCOc2ccc(C)cc2)n1 | inconclusive: 44.7 µM [inhibitor, single point] | 
Clc1cccc(/C(Cc2nc3ccccc3[nH]2)=N\Nc2ccccc2)c1 | inconclusive: 50.1 µM [inhibitor, partial curve, poor fit] | 
C=CCn1c(SCC(=O)N2c3ccccc3Sc3ccccc32)nnc1-c1ccco1 | active: 22.4 µM | 
COc1ccc(NC(=O)C(CCCCNC(=O)OC(C)(C)C)NC(=O)OCc2ccccc2)cc1 (centres undefined) | inconclusive: 79.4 µM [inhibitor, partial curve, poor fit] | 
O=c1c(O)c(-c2cccs2)oc2ccccc12 | inactive | 

SMILES | Potency | activity change, negative = inhibition
O=C(NC(=S)Nc1ccc(N2CCOCC2)c(Cl)c1)c1cncc(Br)c1 | inconclusive: 44.7 µM [inhibitor, partial curve] | 
COc1ccc(OC)c(/C=N/NC(=S)NCCc2ccccc2)c1 | active: 44.7 µM | 
COCCNC(=S)N/N=C1\CC(C)CC(C)(C)C1 (centres undefined) | inconclusive: 2.24 µM [inhibitor, full curve, poor fit] | 
Cc1ccc(C2CC2c2n[nH]c(=S)n2-c2ccc(Cl)cc2)cc1 (centres undefined) | inconclusive: 44.7 µM [inhibitor, partial curve, poor fit] | 
N=C(N)SCc1cccc2ccccc12 | inconclusive: 56.2 µM [inhibitor, partial curve, poor fit] | 
COCCn1cnnc1SCC(=O)c1cccc(OC)c1 | inconclusive: 10 µM [inhibitor, full curve] | 
CCOC(=O)C(CCSC)Nc1nc(Cl)nc(Nc2ccc(Cl)cc2)n1 (centres undefined) | inconclusive: 50.1 µM [inhibitor, partial curve, poor fit] | 
Cc1ccc(COn2c(-c3ccc(Cl)cc3)nc3ccc([N+](=O)[O-])cc32)cc1 | inconclusive: 50.1 µM [inhibitor, partial curve, poor fit] | 
CCC(=O)Nc1ccc2c(c1)OC[C@@H](C)N(C(=O)c1ccccn1)C[C@@H](C)[C@@H](OC)CN(C)C2=O | inconclusive: 3.55 µM [inhibitor, full curve, poor fit] | 
O=C(Nc1cccc(C(=O)N2CCOCC2)c1)c1ncn[nH]1 | inactive | 
CCCCCCCCCCCCOS(=O)(=O)O | inconclusive: 141 µM [inhibitor, single point] | 
Oc1ccccc1CN1CCCC(N2CCc3ccccc3C2)C1 (centres undefined) | inconclusive: 39.8 µM [inhibitor, partial curve, poor fit] | 
Cc1nn(C)c(C)c1CCC(=O)Nc1nc(-c2ccc(F)c(F)c2)c(C)s1 | inactive | 
O=C(NC(=S)Nc1ccc(N2CCOCC2)cc1)c1ccccc1 | inconclusive: 44.7 µM [inhibitor, partial curve, poor fit] | 
O=C(Oc1ccc(Br)cc1)c1cnccn1 | inconclusive: 15.8 µM [inhibitor, partial curve, poor fit] | 
CCCCCCN1C[C@@H](n2cc(COC(=O)c3ccccc3)nn2)[C@H](O)C[C@@H]1c1ccc(C)cc1 | inactive | 
Nc1nccnc1C(=O)OCC(=O)Nc1ccc2[nH]c(=O)[nH]c2c1 | inconclusive: 50.1 µM [inhibitor, partial curve, poor fit] | 
COc1ccc(Nc2nc(C)cc(C)n2)cc1Cl | inconclusive: 56.2 µM [inhibitor, partial curve, poor fit] | 
Cc1cc(C(=O)CSc2nc3ccccc3o2)c(C)n1C | inconclusive: 15.8 µM [inhibitor, full curve, poor fit] | 
COc1ccc(C)cc1NC(=O)C1CC(=O)N(CCc2ccc(F)cc2)C1 (centres undefined) | inconclusive: 112 µM [inhibitor, single point] | 
